{"source": "paper PMC7052099", "about": "(2020)", "experiment": "general procedure: Fmoc solid-phase peptide synthesis; NovaSyn TGR R resin ([…]); Oxyma/DIC (automated); DIC/HOBt (manual)", "details": "220 nm", "note": "One purity is given for all peptides; the source may state it once.", "data": [{"substance": "[K^4(Nα(Palm)-Lys-Nε(GFLGDLKVRKAAP-βAla-([^natTb]Tb-DOTA))),F^7,A^33,P^34,A^35]-NPY", "values": [{"measurement": "final HPLC purity", "setting": "late stage modification step", "result": "> 95", "unit": "%"}]}, {"substance": "[K^4(Nα(Palm)-Lys-Nε(GFLGDLKVRKAAP-βAla-([^natTb]Tb-DOTA))),F^7,P^34]-NPY [[^natTb]Tb-pb12]", "values": [{"measurement": "final HPLC purity", "setting": "late stage modification step", "result": "> 95", "unit": "%"}]}, {"substance": "[K^4(Nα(Palm)-Lys-Nε(GFLGDLKVRKAAP-βAla-DOTA)),F^7,P^34]-NPY [pb12]", "values": [{"measurement": "final HPLC purity", "setting": "whole synthesis, scale of the general procedure 15-µmol", "result": "> 95", "unit": "%"}]}]}
